{"source": "the supplement of paper PMC9578143", "about": "“Small-Molecule Ebselen Binds to YTHDF Proteins Interfering with the Recognition of N^6-Methyladenosine-Modified RNAs” (ACS Pharmacology & Translational Science, 2022)", "note": "This is one part of the list. Part of the spread comes from offsets between plates or batches.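 Hits were defined as a z-score below −3.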"}
{"target": "T1, YTHDF1 YTH domain (aa 365-554) (UniProt Q9BYJ9)", "T1 sequence (whole entry)": "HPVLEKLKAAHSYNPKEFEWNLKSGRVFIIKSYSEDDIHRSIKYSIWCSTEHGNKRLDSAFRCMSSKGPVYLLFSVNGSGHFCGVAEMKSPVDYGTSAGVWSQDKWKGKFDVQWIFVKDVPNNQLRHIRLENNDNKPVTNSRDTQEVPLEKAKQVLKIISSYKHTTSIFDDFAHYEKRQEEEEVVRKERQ", "experiment": "tryptophan fluorescence intensity z-score (mean); higher = higher fluorescence, less quenching (negative = binding / quenching)", "details": "10 µM"}
{"smiles": "CC(C)C[C@H]1C(=O)N2CCC[C@H]2[C@]2(O)O[C@](NC(=O)[C@@H]3C=C4c5cccc6[nH]c(Br)c(c56)C[C@H]4N(C)C3)(C(C)C)C(=O)N12", "note": "(plate: M 1-2)", "tryptophan fluorescence intensity z-score": "inactive: -0.146"}
{"smiles": "CN1[C@@H]2CC[C@H]1C[C@@H](OC(=O)C(CO)c1ccccc1)C2", "note": "(stereo not given in full) (plate: M 1-2)", "tryptophan fluorescence intensity z-score": "inactive: 0.373"}
{"smiles": "C[C@]12CCC(=O)C(O)=C1CC[C@@H]1[C@@H]2CC[C@]2(C)C(=O)CC[C@@H]12", "note": "(plate: M 23-24)", "tryptophan fluorescence intensity z-score": "inactive: 0.252"}
{"smiles": "CNC(C)(C)Cc1ccccc1", "note": "(plate: M 7-8)", "tryptophan fluorescence intensity z-score": "inactive: 0.0187"}
{"smiles": "CNC(Cc1c[nH]c2ccccc12)C(=O)O", "note": "(stereo not given) (plate: M 19-20)", "tryptophan fluorescence intensity z-score": "inactive: 0.512"}
{"smiles": "O=C(NC(=O)c1ccccc1Cl)Nc1ccc(OC(F)(F)F)cc1", "note": "(plate: M 23-24)", "tryptophan fluorescence intensity z-score": "inactive: 0.248"}
{"smiles": "CCCCCCCCCCCCCCCC[n+]1ccccc1", "note": "(plate: M 1-2)", "tryptophan fluorescence intensity z-score": "inactive: 0.413"}
{"smiles": "C=CCC1(C(C)CCC)C(=O)NC(=S)NC1=O", "note": "(stereo not given) (plate: M 13-14)", "tryptophan fluorescence intensity z-score": "inactive: 0.0654"}
{"smiles": "c1ccc(/N=N/c2ccccc2)cc1", "note": "(plate: M 21-22)", "tryptophan fluorescence intensity z-score": "inactive: 0.212"}
{"smiles": "COP(=S)(OC)Oc1ccc(Sc2ccc(OP(=S)(OC)OC)cc2)cc1", "note": "(plate: M 1-2)", "tryptophan fluorescence intensity z-score": "inactive: 0.715"}
{"smiles": "O=P1(N(CCCl)CCCl)NCCCO1", "note": "(stereo not given) (plate: M 1-2)", "tryptophan fluorescence intensity z-score": "inactive: 0.496"}
{"smiles": "c1ccc2c(c1)sc1ccccc12", "note": "(plate: M 1-2)", "tryptophan fluorescence intensity z-score": "inactive: 0.391"}
{"smiles": "CN1C(=O)CCS(=O)(=O)C1c1ccc(Cl)cc1", "note": "(stereo not given) (plate: M 23-24)", "tryptophan fluorescence intensity z-score": "inactive: -0.0571"}
{"smiles": "COc1cc([C@@H]2c3cc4c(cc3[C@H](OC(C)=O)[C@H]3COC(=O)[C@@H]23)OCO4)cc(OC)c1OC", "note": "(plate: M 19-20)", "tryptophan fluorescence intensity z-score": "inactive: 0.634"}
{"smiles": "O=C(O)Cc1cnc[nH]1", "note": "(plate: M 21-22)", "tryptophan fluorescence intensity z-score": "inactive: 0.474"}
{"smiles": "COC(=O)NC(=S)Nc1ccccc1NC(=S)NC(=O)OC", "note": "(plate: M 23-24)", "tryptophan fluorescence intensity z-score": "inactive: 0.463"}
{"smiles": "CC(C)=CCC[C@]1(C)C=Cc2c(O)c3c(c(CC=C(C)C)c2O1)O[C@]12C(=C[C@@H]4C[C@H]1C(C)(C)O[C@@]2(C/C=C(/C)C(N)=O)C4=O)C3=O", "note": "(plate: M 15-16)", "tryptophan fluorescence intensity z-score": "inactive: 0.243"}
{"smiles": "CC1CC(Cl)CCC1C(=O)OC(C)(C)C", "note": "(stereo not given) (plate: M 23-24)", "tryptophan fluorescence intensity z-score": "inactive: 0.41"}
{"smiles": "Cl[C@H]1[C@H](Cl)[C@@H](Cl)[C@@H](Cl)[C@H](Cl)[C@H]1Cl", "note": "(plate: M 1-2)", "tryptophan fluorescence intensity z-score": "inactive: 0.138"}
{"smiles": "CNC(=O)Oc1cccc2c1OC(C)(C)C2", "note": "(plate: M 11-12)", "tryptophan fluorescence intensity z-score": "inactive: -0.0492"}
